{"source": "PubChem BioAssay AID1259405 – NCATS | 2018", "aim": "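Silenced genes that increase secreted GFP made by CHO cells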 (primary screen)", "cell system": "Chinese hamster CHO-K1 ovary cells with stable secreted eGFP expression", "reagent": "single siRNA against mouse genes, 0.8 pmol siRNA per well (2 µl of 400 nM stock)", "duration": "3 days", "measurement": "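Percent of the per-plate non-targeting control median for intracellular GFP per well by laser scanning cytometry and for cell viability by ATP luminescence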", "scale": "GFP, % of control: higher = more GFP per well, higher productivity; viability (ATP), % of control: higher = more viable cells (more ATP)", "hit rule": "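a knock-down is called active if GFP reaches 120% or more of non-targeting control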", "note": "The deposit covers about 50,000 reagents; below is an unselected part. Over the whole deposit, about 4,000 (8%) were called active. 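Mouse siRNA library applied to hamster cells; one well for each siRNA.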 A number with no mark means an inactive call. The numbers tell different reagents against one gene apart."}
The first 2 records, ahead of the listing:
{"gene symbol":"Rtp3","siRNA no.":1,"GFP, % of control":48.1,"viability (ATP), % of control":49.6}
{"gene symbol":"Rtp3","siRNA no.":2,"GFP, % of control":100,"viability (ATP), % of control":111}

Results, from the start:
{"gene symbol":"Rtp3","siRNA no.":1,"GFP, % of control":48.1,"viability (ATP), % of control":49.6}
{"gene symbol":"Rtp3","siRNA no.":2,"GFP, % of control":100,"viability (ATP), % of control":111}
{"gene symbol":"Rtp3","siRNA no.":3,"GFP, % of control":"124 (active)","viability (ATP), % of control":106}
{"gene symbol":"Cfap20","siRNA no.":1,"GFP, % of control":58.3,"viability (ATP), % of control":54}
{"gene symbol":"Cfap20","siRNA no.":2,"GFP, % of control":73.2,"viability (ATP), % of control":79.5}
{"gene symbol":"Cfap20","siRNA no.":3,"GFP, % of control":68.6,"viability (ATP), % of control":68.5}
{"gene symbol":"Vcpip1","siRNA no.":1,"GFP, % of control":65.1,"viability (ATP), % of control":40.5}
{"gene symbol":"Vcpip1","siRNA no.":2,"GFP, % of control":111,"viability (ATP), % of control":87.2}
{"gene symbol":"Vcpip1","siRNA no.":3,"GFP, % of control":95.4,"viability (ATP), % of control":105}
{"gene symbol":"Zfp729a","siRNA no.":1,"GFP, % of control":39.8,"viability (ATP), % of control":57.3}
{"gene symbol":"Zfp729a","siRNA no.":2,"GFP, % of control":"140 (active)","viability (ATP), % of control":99.1}
{"gene symbol":"Fam184b","siRNA no.":1,"GFP, % of control":95.9,"viability (ATP), % of control":85.9}
{"gene symbol":"Fam184b","siRNA no.":2,"GFP, % of control":20.3,"viability (ATP), % of control":27.9}
{"gene symbol":"Fam184b","siRNA no.":3,"GFP, % of control":46.1,"viability (ATP), % of control":72.7}
{"gene symbol":"Pold4","siRNA no.":1,"GFP, % of control":87.3,"viability (ATP), % of control":87.6}
{"gene symbol":"Pold4","siRNA no.":2,"GFP, % of control":68.8,"viability (ATP), % of control":67.5}
